Values quoted from earlier work as cited in patent US7087617B2, “Substituted pyrimidine derivatives” (Pfizer Inc., priority 2003, dated 2006).
For at least one compound, name, drawing or mass did not settle the structure.

Tests used:
[1] = rats; CRF-induced effects
[2] = rats; CRF-induced effects; remark: listed apart in the source

For `CNC1=Nc2ccc(Cl)cc2C(c2ccccc2)=[N+]([O-])C1` [Chlordiazepoxide], the “effect on the "anxiogenic" effects / actions of CRF in the conflict test” value [1] is listed as “attenuates” and the “effect on the "anxiogenic" effects of CRF in the acoustic startle test” value [2] is listed as “attenuates”.
